The data set can be described thus: Global warming potential (GWP), calculated for mixtures per Regulation (EU) NO 517/2014.

SMILES strings stand for the structures.

As to `N#CC(F)(C(F)(F)F)C(F)(F)F` [(CF3)2CFCN, heptafluoroisobutyronitrile], the GWP (pure gas) was 2,400.
As to `FC(F)=C(F)OC(F)(F)F` [CF3OCFCF2, trifluoromethyl trifluorovinyl ether], the GWP runs as follows: (mixed gas of CF3OCFCF2 and CO2, mixing ratio mol %, calculated per Regulation (EU) NO 517/2014) 0.170; (pure gas) 0.170.
For the molecule `FS(F)(F)(F)(F)F` [SF6, reference compound], where the note is “pure gas”, the GWP is given as 23,500.

Source of the values: patent US20260038709A1 (priority 2020, published 2026).
